PubChem BioAssay AID743454, Peter MacCallum Cancer Centre | 2014

Assay: 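Genes whose loss kills vorinostat-resistant colon cancer cells under vorinostat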 (primary screen)
Cells: human HCT116-VR colon cancer cells, selected for vorinostat resistance
Reagent: siRNA pool against human genes, 40 nM siRNA pool
Time to read-out: vorinostat for 24 h, read-out about 72 h after transfection
Treatment: vorinostat at 2.5 µM final
Measurement: 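Cell viability by CellTiter-Fluor and caspase 3/7 activity by luminescence, each scaled to mock wells per plate, duplicates averaged, then robust z-scored over all plates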
Reading the numbers: viability robust z-score: higher = more viable cells than screen typical; caspase robust z-score: higher = more caspase 3/7 activity than screen typical
Rule for the call: 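a knock-down is a hit when classed RV1 or RV2 for lowered viability, or CA1 or CA2 for caspase activation; those lethal without drug were dropped; hits were retested singly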
This is one part, drawn at random, of about 18,000 deposited reagents. 450 of them (2.5%) were called active. 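Single biological run; no consistent viability z cut-off exists, so the class columns, not z-scores, define the calls.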 Reagent sequences are not shown.

SLC9A8
- viability hit class: no change
- caspase hit class: no change
- viability robust z-score: 0.6
- caspase robust z-score: 1.55
- Outcome: inactive

USF1 (upstream transcription factor 1)
- viability hit class: no change
- caspase hit class: no change
- viability robust z-score: 0.84
- caspase robust z-score: -0.12
- Outcome: inactive

KPNB1 (karyopherin subunit beta 1)
- viability hit class: no change
- caspase hit class: no change
- viability robust z-score: -4.21
- caspase robust z-score: 2.4
- Outcome: inactive

RPS4X (ribosomal protein S4 X-linked)
- viability hit class: no change
- caspase hit class: no change
- viability robust z-score: -6.57
- caspase robust z-score: -1.68
- Outcome: inactive

SH3BP4 (SH3 domain binding protein 4)
- viability hit class: no change
- caspase hit class: no change
- viability robust z-score: 0.06
- caspase robust z-score: -0.44
- Outcome: inactive

RSAD2 (radical S-adenosyl methionine domain containing 2)
- viability hit class: no change
- caspase hit class: no change
- viability robust z-score: 0.29
- caspase robust z-score: 1.9
- Outcome: inactive

CHST3 (carbohydrate sulfotransferase 3)
- viability hit class: no change
- caspase hit class: no change
- viability robust z-score: -1.65
- caspase robust z-score: -0.54
- Outcome: inactive

Records above whose target name starts with S or s:
SLC9A8
- viability hit class: no change
- caspase hit class: no change
- viability robust z-score: 0.6
- caspase robust z-score: 1.55
- Outcome: inactive

SH3BP4 (SH3 domain binding protein 4)
- viability hit class: no change
- caspase hit class: no change
- viability robust z-score: 0.06
- caspase robust z-score: -0.44
- Outcome: inactive

The listing continues.
NRP1 (neuropilin 1)
- viability hit class: no change
- caspase hit class: no change
- viability robust z-score: 2.02
- caspase robust z-score: 0.03
- Outcome: inactive

CCDC57 (coiled-coil domain containing 57)
- viability hit class: no change
- caspase hit class: no change
- viability robust z-score: 0.8
- caspase robust z-score: -0.18
- Outcome: inactive

GALNT7 (polypeptide N-acetylgalactosaminyltransferase 7)
- viability hit class: no change
- caspase hit class: no change
- viability robust z-score: 0
- caspase robust z-score: 1.16
- Outcome: inactive

SOCS3 (suppressor of cytokine signaling 3)
- viability hit class: no change
- caspase hit class: no change
- viability robust z-score: 0.28
- caspase robust z-score: -0.28
- Outcome: inactive

SLC31A1
- viability hit class: no change
- caspase hit class: no change
- viability robust z-score: -2.01
- caspase robust z-score: -0.54
- Outcome: inactive

PMF1 (polyamine modulated factor 1)
- viability hit class: no change
- caspase hit class: no change
- viability robust z-score: 0.34
- caspase robust z-score: 3.98
- Outcome: inactive

MAGEA5P (MAGE family member A5, pseudogene)
- viability hit class: no change
- caspase hit class: no change
- viability robust z-score: -1.4
- caspase robust z-score: -0.5
- Outcome: inactive
